# Experimental data as given in the supplement of paper PMC6411743.
# ± gives the standard deviation of the averaged measurements. Some of the results follow.
# What was measured:
# Assay in all cases: NP40-soluble protein abundance relative to vehicle (solubility fold change) (ratio); higher = more soluble protein in presence of GTP
# UniProt Q9H993 = target: T1, UniProt Q9H993
# T1 sequence (whole entry): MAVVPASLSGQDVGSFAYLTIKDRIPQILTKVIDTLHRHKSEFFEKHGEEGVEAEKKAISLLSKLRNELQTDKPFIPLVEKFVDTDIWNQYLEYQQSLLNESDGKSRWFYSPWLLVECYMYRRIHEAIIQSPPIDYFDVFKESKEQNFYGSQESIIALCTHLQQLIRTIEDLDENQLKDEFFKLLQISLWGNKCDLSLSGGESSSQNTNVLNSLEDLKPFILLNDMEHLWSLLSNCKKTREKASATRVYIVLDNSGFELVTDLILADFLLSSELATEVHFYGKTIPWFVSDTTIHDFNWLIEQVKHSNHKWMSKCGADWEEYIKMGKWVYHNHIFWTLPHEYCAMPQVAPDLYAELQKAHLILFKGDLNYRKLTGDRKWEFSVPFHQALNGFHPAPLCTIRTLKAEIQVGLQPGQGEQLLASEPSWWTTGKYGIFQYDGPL
# Outline: (§1)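 Jurkat crude lysate (Dounce-homogenised) was treated with eight concentrations from 0.1 to 10 mM for 10 min at room temperature, then 3 min at 37 °C. It was solubilised with 0.8% NP40 and benzonase (60 min, 4 °C) and ultracentrifuged, and the supernatant was TMT-labelled for LC-MS/MS. Intensities were vsn-normalised, and the value is the fold change against the NP40-processed vehicle per replicate, from three independent experiments.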
# [1] = target: T2, UniProt Q9H9P8 and related entries
# T2 sequence (whole entry): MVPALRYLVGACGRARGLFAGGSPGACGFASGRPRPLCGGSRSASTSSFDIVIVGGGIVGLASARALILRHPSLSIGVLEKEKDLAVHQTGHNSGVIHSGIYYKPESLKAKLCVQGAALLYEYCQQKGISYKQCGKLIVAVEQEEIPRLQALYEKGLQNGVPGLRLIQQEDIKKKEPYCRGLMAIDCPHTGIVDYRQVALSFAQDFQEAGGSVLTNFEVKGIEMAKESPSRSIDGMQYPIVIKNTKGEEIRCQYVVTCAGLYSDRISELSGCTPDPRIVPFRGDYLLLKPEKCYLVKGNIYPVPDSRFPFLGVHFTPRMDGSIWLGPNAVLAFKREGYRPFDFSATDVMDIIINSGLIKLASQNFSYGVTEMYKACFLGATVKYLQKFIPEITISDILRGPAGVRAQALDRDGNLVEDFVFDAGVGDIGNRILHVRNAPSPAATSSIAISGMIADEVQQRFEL
# Outline: as §1
# UniProt Q9HCC0-2|Q9HCC0 = target: T3, UniProt Q9HCC0-2|Q9HCC0
# T3 sequence (whole entry): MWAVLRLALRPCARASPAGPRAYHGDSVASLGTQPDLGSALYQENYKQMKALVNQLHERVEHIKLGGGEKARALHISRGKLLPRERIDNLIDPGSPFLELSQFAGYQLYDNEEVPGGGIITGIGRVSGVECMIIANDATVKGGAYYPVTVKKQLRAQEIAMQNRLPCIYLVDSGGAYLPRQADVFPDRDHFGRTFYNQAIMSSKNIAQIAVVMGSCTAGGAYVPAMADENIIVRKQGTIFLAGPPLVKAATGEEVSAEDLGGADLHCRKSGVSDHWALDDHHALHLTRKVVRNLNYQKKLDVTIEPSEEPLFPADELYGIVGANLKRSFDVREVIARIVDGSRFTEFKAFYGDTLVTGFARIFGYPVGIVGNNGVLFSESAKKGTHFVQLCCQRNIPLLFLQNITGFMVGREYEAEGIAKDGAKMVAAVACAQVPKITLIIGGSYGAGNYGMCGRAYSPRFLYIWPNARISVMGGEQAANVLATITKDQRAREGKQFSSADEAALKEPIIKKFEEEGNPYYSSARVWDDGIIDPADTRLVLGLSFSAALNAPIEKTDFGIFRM
# Outline: as §1
# [2] = target: T4, UniProt Q9NPI1 and related entries
# T4 sequence (whole entry): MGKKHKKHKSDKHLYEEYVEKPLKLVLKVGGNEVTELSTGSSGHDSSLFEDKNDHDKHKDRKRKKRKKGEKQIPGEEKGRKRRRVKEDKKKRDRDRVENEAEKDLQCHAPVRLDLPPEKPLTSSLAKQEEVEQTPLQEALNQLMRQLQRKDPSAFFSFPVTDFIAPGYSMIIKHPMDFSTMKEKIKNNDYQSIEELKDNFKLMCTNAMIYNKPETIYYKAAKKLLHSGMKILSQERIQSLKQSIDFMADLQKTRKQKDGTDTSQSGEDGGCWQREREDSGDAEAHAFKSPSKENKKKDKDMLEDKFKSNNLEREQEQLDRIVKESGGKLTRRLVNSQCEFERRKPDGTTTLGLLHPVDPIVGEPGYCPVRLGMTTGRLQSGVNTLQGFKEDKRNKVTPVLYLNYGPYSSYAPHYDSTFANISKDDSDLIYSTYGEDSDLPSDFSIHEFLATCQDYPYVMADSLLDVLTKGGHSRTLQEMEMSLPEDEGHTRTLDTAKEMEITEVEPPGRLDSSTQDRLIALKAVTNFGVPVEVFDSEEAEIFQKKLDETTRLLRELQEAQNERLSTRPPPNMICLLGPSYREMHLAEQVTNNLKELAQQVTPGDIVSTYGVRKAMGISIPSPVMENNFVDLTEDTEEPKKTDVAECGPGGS
# Outline: as §1
# [3] = target: T5, UniProt Q9NSC5 and related entries
# T5 sequence (whole entry): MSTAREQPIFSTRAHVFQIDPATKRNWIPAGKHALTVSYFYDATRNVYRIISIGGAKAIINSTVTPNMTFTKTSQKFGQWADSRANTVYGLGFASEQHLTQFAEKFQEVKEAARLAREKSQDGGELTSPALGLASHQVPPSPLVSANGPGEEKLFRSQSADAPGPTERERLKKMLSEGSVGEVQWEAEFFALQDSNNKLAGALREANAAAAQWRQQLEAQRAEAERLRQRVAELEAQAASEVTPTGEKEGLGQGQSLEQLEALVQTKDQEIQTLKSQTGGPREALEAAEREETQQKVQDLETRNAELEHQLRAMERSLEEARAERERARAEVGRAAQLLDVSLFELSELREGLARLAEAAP
# Outline: as §1
smiles,measurement,setting,value
Nc1nc2c(ncn2[C@@H]2O[C@H](COP(=O)(O)OP(=O)(O)OP(=O)(O)O)[C@@H](O)[C@H]2O)c(=O)[nH]1 [guanosine triphosphate],NP40-soluble protein abundance,UniProt Q9H993; concentration: 8mM,0.832 ± 0.12
same,NP40-soluble protein abundance,UniProt Q9H993; concentration: 10mM,0.814 ± 0.11
same,NP40-soluble protein abundance,[1]; concentration: 0.1mM,1.03 ± 0.034
same,NP40-soluble protein abundance,[1]; concentration: 0.5mM,0.9756 ± 0.0053
same,NP40-soluble protein abundance,[1]; concentration: 1mM,0.986 ± 0.034
same,NP40-soluble protein abundance,[1]; concentration: 2mM,0.9648 ± 0.0067
same,NP40-soluble protein abundance,[1]; concentration: 4mM,0.954 ± 0.05
same,NP40-soluble protein abundance,[1]; concentration: 6mM,0.917 ± 0.02
same,NP40-soluble protein abundance,[1]; concentration: 8mM,0.925 ± 0.032
same,NP40-soluble protein abundance,[1]; concentration: 10mM,0.895 ± 0.011
same,NP40-soluble protein abundance,UniProt Q9HCC0-2|Q9HCC0; concentration: 0.1mM,1.05 ± 0.091
same,NP40-soluble protein abundance,UniProt Q9HCC0-2|Q9HCC0; concentration: 0.5mM,1.07 ± 0.065
same,NP40-soluble protein abundance,UniProt Q9HCC0-2|Q9HCC0; concentration: 1mM,1.03 ± 0.087
same,NP40-soluble protein abundance,UniProt Q9HCC0-2|Q9HCC0; concentration: 2mM,1.05 ± 0.064
same,NP40-soluble protein abundance,UniProt Q9HCC0-2|Q9HCC0; concentration: 4mM,1.05 ± 0.1
same,NP40-soluble protein abundance,UniProt Q9HCC0-2|Q9HCC0; concentration: 6mM,1.05 ± 0.09
same,NP40-soluble protein abundance,UniProt Q9HCC0-2|Q9HCC0; concentration: 8mM,1.05 ± 0.074
same,NP40-soluble protein abundance,UniProt Q9HCC0-2|Q9HCC0; concentration: 10mM,1.02 ± 0.081
same,NP40-soluble protein abundance,[2]; concentration: 0.1mM,1.09 ± 0.029
same,NP40-soluble protein abundance,[2]; concentration: 0.5mM,1.11 ± 0.036
same,NP40-soluble protein abundance,[2]; concentration: 1mM,1.22 ± 0.041
same,NP40-soluble protein abundance,[2]; concentration: 2mM,1.36 ± 0.098
same,NP40-soluble protein abundance,[2]; concentration: 4mM,1.4 ± 0.18
same,NP40-soluble protein abundance,[2]; concentration: 6mM,1.47 ± 0.2
same,NP40-soluble protein abundance,[2]; concentration: 8mM,1.58 ± 0.32
same,NP40-soluble protein abundance,[2]; concentration: 10mM,1.56 ± 0.28
same,NP40-soluble protein abundance,[3]; concentration: 0.1mM,1.04 ± 0.058
same,NP40-soluble protein abundance,[3]; concentration: 0.5mM,1.01 ± 0.042
same,NP40-soluble protein abundance,[3]; concentration: 1mM,1.07 ± 0.068
same,NP40-soluble protein abundance,[3]; concentration: 2mM,1.11 ± 0.062
same,NP40-soluble protein abundance,[3]; concentration: 4mM,1.12 ± 0.067
same,NP40-soluble protein abundance,[3]; concentration: 6mM,1.09 ± 0.12
same,NP40-soluble protein abundance,[3]; concentration: 8mM,1.04 ± 0.11
same,NP40-soluble protein abundance,[3]; concentration: 10mM,1.11 ± 0.091

# Shown with tabs: entries from further up
smiles	measurement	setting	value
Nc1nc2c(ncn2[C@@H]2O[C@H](COP(=O)(O)OP(=O)(O)OP(=O)(O)O)[C@@H](O)[C@H]2O)c(=O)[nH]1 [guanosine triphosphate]	NP40-soluble protein abundance	[3]; concentration: 2mM	1.11 ± 0.062
same	NP40-soluble protein abundance	[3]; concentration: 4mM	1.12 ± 0.067
same	NP40-soluble protein abundance	[3]; concentration: 6mM	1.09 ± 0.12
